Reference: doi:10.1101/500736
These are yes or no findings as the source states them, for the method shown. Some results given as binding are weak or reduced against the parent protein; the word gives no strength.

T1: ARR15 (Arabidopsis thaliana) (UniProt Q7G8V2)
T1 sequence: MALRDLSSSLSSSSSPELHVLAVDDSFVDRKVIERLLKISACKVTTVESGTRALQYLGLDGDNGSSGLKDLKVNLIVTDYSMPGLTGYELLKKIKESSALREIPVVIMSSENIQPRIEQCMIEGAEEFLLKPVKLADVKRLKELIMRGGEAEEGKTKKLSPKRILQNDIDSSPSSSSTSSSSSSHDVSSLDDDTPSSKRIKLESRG

T2: NGA3 (Arabidopsis thaliana) (UniProt Q9MAN1)
T2 sequence: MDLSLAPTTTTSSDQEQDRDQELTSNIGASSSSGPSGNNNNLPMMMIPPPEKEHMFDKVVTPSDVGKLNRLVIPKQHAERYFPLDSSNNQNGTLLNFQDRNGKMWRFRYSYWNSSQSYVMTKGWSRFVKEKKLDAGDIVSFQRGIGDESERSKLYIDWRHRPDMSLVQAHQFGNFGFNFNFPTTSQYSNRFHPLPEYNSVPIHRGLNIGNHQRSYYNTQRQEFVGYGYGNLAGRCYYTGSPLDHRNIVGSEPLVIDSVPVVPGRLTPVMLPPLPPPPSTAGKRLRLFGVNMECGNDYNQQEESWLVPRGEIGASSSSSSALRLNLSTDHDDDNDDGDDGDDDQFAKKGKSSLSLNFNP


Assays:
[1] = target: T1, ARR15 (Arabidopsis thaliana); test: two-hybrid
[2] = target: T2, NGA3 (Arabidopsis thaliana); test: two-hybrid

Binder	binding [1]	binding [2]
PAN (protein, UniProt Q9SX27 1-452) MQSSFKTVPFTPDFYSQSSYFFRGDSCLEEFHQPVNGFHHEEAIDLSPNVTIASANLHYTTFDTVMDCGGGGGGGLRERLEGGEEECLDTGQLVYQKGTRLVGGGVGEVNSSWCDSVSAMADNSQHTDTSTDIDTDDKTQLNGGHQGMLLATNCSDQSNVKSSDQRTLRRLAQNREAARKSRLRKKAYVQQLENSRIRLAQLEEELKRARQQGSLVERGVSADHTHLAAGNGVFSFELEYTRWKEEHQRMINDLRSGVNSQLGDNDLRVLVDAVMSHYDEIFRLKGIGTKVDVFHMLSGMWKTPAERFFMWLGGFRSSELLKILGNHVDPLTDQQLIGICNLQQSSQQAEDALSQGMEALQQSLLETLSSASMGPNSSANVADYMGHMAMAMGKLGTLENFLRQADLLRQQTLQQLHRILTTRQAARAFLVIHDYISRLRALSSLWLARPRD	binds	–
CRC (protein, UniProt Q8L925 1-181) MNLEEKPTMTASRASPQAEHLYYVRCSICNTILAVGIPLKRMLDTVTVKCGHCGNLSFLTTTPPLQGHVSLTLQMQSFGGSDYKKGSSSSSSSSTSSDQPPSPSPPFVVKPPEKKQRLPSAYNRFMRDEIQRIKSANPEIPHREAFSAAAKNWAKYIPNSPTSITSGGHNMIHGLGFGEKK	–	binds
